In all, about 52,000 sequences went through this assay and about 210 (0.4%) were called active.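 The calls were made as follows: active = gene whose silencing raises cell survival under the drug, median off-target-corrected z-score across its silencing RNAs 2 or more; inactive = the rest.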 The list shows a part of the results.
experiment: Resistance to Poly (ADP-Ribose) Polymerase inhibitor: Gene Identification via Genome-wide siRNA Screen; conditions: mouse BRCA2 R2336H ES cells, olaparib, CellTiter-Glo viability; active compounds read high
Summary of the method: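 Mouse BRCA2 R2336H ES cells were reverse-transfected with siRNA (20 nM final), treated at 48 h with 500 nM olaparib, and read by CellTiter-Glo after 72 h. Scores: MAD-based z per siRNA, median per gene, seed off-target correction.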

Sequence | z-score
CCAAACGAAGGAAGCUGACTT against Taf6l | inactive: -1.5
GGACAUCCUGGCUUUCUACTT against Insm1 | inactive: -0.469
GGAGGUUUUUAAAUGUGUUTT against Sbk | inactive: 0.232
GGUUCUUAAAUCAGCAUUGTT against Dnm3 | inactive: -0.953
CCCUUUGUUAUACUCUAAATT against G430041M01Rik | inactive: -0.427
CGGUCAGAUGUACGAAACCTT against Crygs | inactive: -0.887
GGUACUACUGUGGCUAAGCTT against 1700120K04Rik | inactive: 0.647
GGAUGUCUCCAUGAAGGAATT against Ccnb2 | inactive: -0.86
GCCUAUGACAUCUCCGUACTT against Alx3 | inactive: -0.855
GAAGGACACCCUUAUAUUUTT against Olfr1216 | inactive: -0.326
GCUUGUGGACUACCAUAAGTT against Ptk6 | inactive: 0.786
GCUUAAAAGUGAAGUCUUGTT against C730025P13Rik | inactive: -1.37
CCUGGAACGAAUAUUUGUGTT against C230094A16Rik | inactive: -0.291
GAUUACAGACAGUGGAAAATT against Ndufb3 | inactive: 0.951
GGGCAGAUCUAAAACCUUCTT against Olfr935 | inactive: -0.265
GGACUGAAGGGAGAUUUUUTT against Fstl3 | inactive: 2.37
GGGAAUUCUACACUCAUAUTT against Txndc3 | inactive: 0.361
GGAAAUGGACUGUUUAGGCTT against Fgf15 | inactive: 0.493
UUAUAGGCCUAUUGGUACATT against Olfr1208 | inactive: -2.43
GGCCAGAAAACAUGCUUUATT against Pbx1 | inactive: 3.32
CGGGACAUUCGUGAUCUUATT against 4930511J11Rik | inactive: -2.48
GGAGAAGAAAGAAAAGCUUTT against Nusap1 | inactive: -0.243
GGCAAAAAAAGGCUUUAUUTT against Nde1 | inactive: 1.13

Some of the entries so far, with tabs.
Sequence	z-score
GGUUCUUAAAUCAGCAUUGTT against Dnm3	inactive: -0.953
CCCUUUGUUAUACUCUAAATT against G430041M01Rik	inactive: -0.427

The listing continues.

Sequence | z-score
GGAAGUGGCUAUGACAGAGTT against Atp1a3 | inactive: -0.078
GGAUGAUUAUUGGAGCUAUTT against Vtn | inactive: 0.647
GGAGCCUUGGAAGUGAUCUTT against AI661017 | inactive: -2.27
GGGCCAUUUCAGCUUUUCUTT against Mei1 | inactive: -0.0174
GGUAGGGUGGACACAACUCTT against Gpsm3 | inactive: 1.08
CCCGGAGAGUCAUUUGUGUTT against Cpsf4 | inactive: -1.05
GGUAGUGGAAUGUGGGAGUTT against 2610044O15Rik | inactive: -1.55
GGACGUGCUCAAGUUCAUCTT against Ift172 | inactive: -1.45
CCUUAGCAGAAUUGAGUCGTT against 1110001A12Rik | inactive: -0.00428
CCCAAUAGGCAACUCCGAATT against 1700025K23Rik | inactive: 0.384
GGCAAAACAAAGAAUGAAATT against Tesp2 | inactive: -0.345
GGUCAGAACUUGAUGCUGCTT against Fgr | inactive: 1.27
CCCAAAACUUCGUUUGUGUTT against Vezf1 | inactive: 0.53
GCCAUUCUCCAACAAUCGATT against Evc | inactive: 0.905
GGAAGUUCAGAUUUGCUACTT against Hes6 | inactive: 1.77
GCAGGCUAGGAACAGUUAATT against Gpr61 | inactive: -0.489
GGUGUGUUUGGAUAUAGUUTT against Prkdc | inactive: 1.01
GCAUGCGUCAAUUUCUAAATT against Cdon | inactive: 0.362
GGAAGAUGACAGUGCUGUATT against AA408296 | inactive: -0.0381
GGUCUGCACUGAGAAGAUUTT against Hmg20b | inactive: 0.21
CGGAGACAUUUUCCCUAGCTT against Ccng1 | inactive: -0.884
GGUGGUUACUAGGAACAAGTT against MGC59240 | inactive: -1.28
GGUGAGUCAACUGUAUUUCTT against Wdr51a | inactive: -0.637

Sequence | z-score
GGCUUUGGAGAUAAAUUUATT against Nup153 | inactive: -2.27
CCAGUUCUAAGCAAAUUGATT against Cyp4v3 | inactive: 0.209
GGGACUGGAUCCUUGAUAUTT against Ebi3 | inactive: -1.49
GGAACUGGGAGACCUAUAATT against Angptl2 | inactive: -2.79
GCUUCUAUACUGAUUAUGATT against Aldh6a1 | inactive: 0.694
GGGAACAGGCUUGUUGUCUTT against Treml1 | inactive: -0.934
GCAAUCAACUGUCUGUUUUTT against Cyp2b9 | inactive: 0.401
CCUACGGCAAACAGAGACUTT against Prss18 | inactive: 2.06
GGUUCAUUUAUACUUAACCTT against Tgifx1 | inactive: 2.29
GCAAGCAGAGCUGAUUCUUTT against Slc25a24 | inactive: -0.794
GGACUGCUUCUACAAGGUUTT against Uck1 | inactive: 1.06
GGUAAAGCAAGAGAGUAUUTT against Hccs | inactive: 1.46
GGUGCCAUGGCUAUCUGUGTT against 2810439M11Rik | inactive: -2.09
GGAGAUCUCACCGACAUUGTT against Cpt1c | inactive: -1.12
CCUCAAACUAACCACUCACTT against Olfr1045 | inactive: -0.866
GGAUGCCGUCAACAUUGUATT against Psmd4 | inactive: -3.43
GGUCUCUUCGAUGUCCUCATT against Htr6 | inactive: -0.158
GCUGGACUCACAUUUCAGUTT against 4930417G10Rik | inactive: -2.24
GGCUCUUCUCUCGUCCUUGTT against Nif3l1 | inactive: 0.693
GGAAGGAAAUGUGUGAAAUTT against 4930555G01Rik | inactive: -1.25
GGGCCUCAAAAACCUCAUGTT against Prelp | inactive: -0.251

From PubChem BioAssay AID1347423 (Functional Genomics Laboratory (NCATS/FGL), 2020)
